The numbers were not newly measured in patent US20180161291A1, “EXTENDED RELEASE UREA COMPOSITIONS” (Kato Pharmaceuticals, Inc., priority 2015, published 2018), which cites them from elsewhere.

Where two headings read alike, the source gives them in different places.

For the series the following is noted: cited from earlier work.

With `NC(N)=O` [urea], the solubility entry is given as “practically insoluble” (in chloroform or ether); “very soluble” (in water, ethanol, methanol and glycerol).
